Results from PMC9887883, “A family of C. elegans VASA homologs control Argonaute pathway specificity and promote transgenerational silencing”.

What was measured:
Assay in all cases: EMSA
[1] = target: T1, GLH-1(K391A) (Caenorhabditis elegans) (UniProt P34689); conditions: 2 mM MgCl2, 10 uM protein, 2 uM RNA, with and without 2 mM ATP; 25 mM HEPES pH 7.4, 150 mM NaCl, 2 mM MgCl2, +/- 2 mM ATP, 30 min at RT; native 8% PAGE in TBE, cold room; recombinant protein; residues 1-763; protein details: FLAG; label: 5'-Cy3 (Methods), legend of Fig 5F says 5'-FAM
T1 sequence (looked up): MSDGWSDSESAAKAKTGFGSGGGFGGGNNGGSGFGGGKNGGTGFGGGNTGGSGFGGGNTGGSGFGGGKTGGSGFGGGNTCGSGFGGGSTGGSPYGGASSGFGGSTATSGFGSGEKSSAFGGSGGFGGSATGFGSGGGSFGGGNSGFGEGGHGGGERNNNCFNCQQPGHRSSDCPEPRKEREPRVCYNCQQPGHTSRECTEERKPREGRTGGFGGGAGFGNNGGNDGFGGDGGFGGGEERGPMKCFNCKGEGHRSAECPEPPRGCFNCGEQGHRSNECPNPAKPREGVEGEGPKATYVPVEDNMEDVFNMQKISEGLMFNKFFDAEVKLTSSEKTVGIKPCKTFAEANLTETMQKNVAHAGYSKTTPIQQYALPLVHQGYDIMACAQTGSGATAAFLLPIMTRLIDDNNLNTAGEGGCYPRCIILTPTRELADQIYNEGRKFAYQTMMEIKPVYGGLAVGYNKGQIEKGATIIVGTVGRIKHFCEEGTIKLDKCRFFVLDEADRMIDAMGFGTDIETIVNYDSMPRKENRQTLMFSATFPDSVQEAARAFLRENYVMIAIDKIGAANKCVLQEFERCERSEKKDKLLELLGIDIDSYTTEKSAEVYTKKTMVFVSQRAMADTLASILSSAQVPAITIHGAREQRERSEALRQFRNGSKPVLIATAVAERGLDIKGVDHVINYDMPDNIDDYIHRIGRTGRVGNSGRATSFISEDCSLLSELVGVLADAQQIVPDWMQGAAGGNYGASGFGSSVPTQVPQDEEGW

[2] = target: T2, GLH-1(DQAD) E500Q (Caenorhabditis elegans) (UniProt P34689); conditions: no ATP, 2 mM MgCl2, 10 uM protein, 2 uM RNA; 25 mM HEPES pH 7.4, 150 mM NaCl, 2 mM MgCl2, +/- 2 mM ATP, 30 min at RT; native 8% PAGE in TBE, cold room; recombinant protein; protein details: FLAG; label: 5'-Cy3 (Methods), legend of Fig 5F says 5'-FAM
T2 sequence (looked up, limits assumed): T1 sequence (looked up) with A391K, E500Q

[3] = target: T3, GLH-1 WT (Caenorhabditis elegans) (UniProt P34689); conditions: 2 mM MgCl2, 10 uM protein, 2 uM RNA, with and without 2 mM ATP; 25 mM HEPES pH 7.4, 150 mM NaCl, 2 mM MgCl2, +/- 2 mM ATP, 30 min at RT; native 8% PAGE in TBE, cold room; recombinant protein; residues 1-763; protein details: FLAG; label: 5'-Cy3 (Methods), legend of Fig 5F says 5'-FAM
T3 sequence (looked up): T1 sequence (looked up) with A391K

Measured: binding result

GUCAAAGAUAGCCUUGACCUUG [22-nt ssRNA oligo]
binds more weakly: all assays above

Residue numbers refer to the chain shown, from its start. Weaker means in comparison with the reference protein, sequence or condition of that experiment. Tags and fusion partners may be left off the protein sequences shown. For part of these data: Construct, isoform or probe ends are uncertain for at least one entry. For part of these data: At least one verdict was read from the data and is not stated in words by the source.
